These are yes or no findings as the source states them, for the method shown. In cells and extracts the contact can be indirect. Some results given as binding are weak or reduced against the parent protein; the word gives no strength.
What was measured:
[1] = target: 14-3-3ζ in CSQT-2 and SMMC-7721 cells for which no transfection is told (human (endogenous in CSQT-2 and SMMC-7721)) (UniProt P63104); experiment: co-IP; lysates of SMMC-7721 and CSQT-2 cells over-expressing 14-3-3ζ or treated with CoCl2; immunoprecipitated with anti-14-3-3ζ antibody, probed with anti-HIF-1α antibody
[2] = target: 14-3-3ζ expressed from the pcDNA3 14-3-3ζ plasmid (UniProt P63104); experiment: as above

Amino acid sequences for entries named in this document (tags omitted).
UniProt P63104: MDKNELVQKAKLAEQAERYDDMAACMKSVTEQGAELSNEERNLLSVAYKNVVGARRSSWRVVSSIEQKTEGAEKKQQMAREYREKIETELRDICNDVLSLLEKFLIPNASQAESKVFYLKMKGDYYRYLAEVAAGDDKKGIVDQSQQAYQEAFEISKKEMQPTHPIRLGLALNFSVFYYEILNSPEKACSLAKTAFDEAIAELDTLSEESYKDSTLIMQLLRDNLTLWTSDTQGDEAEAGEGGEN
UniProt Q16665: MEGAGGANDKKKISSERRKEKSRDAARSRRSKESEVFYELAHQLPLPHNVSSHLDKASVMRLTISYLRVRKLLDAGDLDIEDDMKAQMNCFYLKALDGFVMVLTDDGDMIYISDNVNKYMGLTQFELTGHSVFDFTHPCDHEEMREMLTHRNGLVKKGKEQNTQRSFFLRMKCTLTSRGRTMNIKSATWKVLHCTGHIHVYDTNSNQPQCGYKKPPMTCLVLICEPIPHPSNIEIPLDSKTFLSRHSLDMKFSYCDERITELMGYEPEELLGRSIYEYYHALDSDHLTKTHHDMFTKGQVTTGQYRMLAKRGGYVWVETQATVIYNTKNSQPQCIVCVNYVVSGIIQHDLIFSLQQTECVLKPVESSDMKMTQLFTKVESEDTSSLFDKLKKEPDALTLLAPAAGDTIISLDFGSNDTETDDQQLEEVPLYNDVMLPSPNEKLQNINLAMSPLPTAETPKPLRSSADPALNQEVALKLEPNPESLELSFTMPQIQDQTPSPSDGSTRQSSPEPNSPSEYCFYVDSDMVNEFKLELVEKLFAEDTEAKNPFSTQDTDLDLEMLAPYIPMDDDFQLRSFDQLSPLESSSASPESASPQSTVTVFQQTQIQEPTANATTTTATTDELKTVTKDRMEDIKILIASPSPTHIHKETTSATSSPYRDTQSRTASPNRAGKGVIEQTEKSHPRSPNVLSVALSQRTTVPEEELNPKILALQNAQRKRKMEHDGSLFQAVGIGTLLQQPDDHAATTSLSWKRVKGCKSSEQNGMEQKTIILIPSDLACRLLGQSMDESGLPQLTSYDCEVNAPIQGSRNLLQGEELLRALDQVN

## hypoxia-induced factor-1α (from UniProt Q16665 1-826)
[1]
  binding: binds
[2]
  binding: binds
